In patent US20230125810A1, “DESIGNED BACTERIAL COMPOSITIONS AND USES THEREOF” (Seres Therapeutics, Inc., priority 2019, published 2023):
At least one compound was matched to its structure with a doubt left.

Legend:
[1] = system: HDAC enzymes (HeLa nuclear extract); assay: HDAC inhibition assay (HDAC-Glo I/II, HeLa nuclear extract); assay type: biochemical; details: sterile supernatant spiked with 15 mM
[2] = system: TNF-α-driven IL-8 secretion by HT29 epithelial cells; assay: Anti-inflammatory assay in IECs (TNF-α-driven IL-8 secretion); assay type: cell-based, human; details: 1 hour pre-treatment
[3] = system: LPS-stimulated peripheral blood mononuclear cells (PBMCs); assay: Cytokine production by LPS-stimulated PBMCs; assay type: cell-based; details: 12.5, 25, 50 μM

| SMILES | HDAC inhibition [1] | TNF-α-dependent IL-8 secretion by IECs [2] | IL-10 production [3] | TNF-α production [3] |
| --- | --- | --- | --- | --- |
| CCCC(=O)O [butyrate] | 65-75% | reduced levels of TNF-α-dependent IL-8 secretion |  |  |
| C[C@H](CCC(=O)O)[C@H]1CC[C@H]2[C@@H]3CC[C@@H]4C[C@H](O)CC[C@]4(C)[C@H]3C[C@H](O)[C@]12C [deoxycholic acid] |  |  | increase IL-10 production | decrease TNF-α production |
| C[C@H](CCC(=O)O)[C@H]1CC[C@H]2[C@@H]3CC[C@@H]4C[C@H](O)CC[C@]4(C)[C@H]3CC[C@]12C [lithocholic acid] |  |  | increase IL-10 production | decrease TNF-α production |
